Assay results: patent publication US8685720B2, “Engineered cellular pathways for programmed autoregulation of differentiation” (The Trustees of Princeton University, priority 2006, dated 2014)
Entries after “also recorded” stand apart in the source; their conditions may differ. At least one structure is not confirmed: it was looked up by name or label, or the drawing left a doubt.

System: Ainv15 mES cell line
Assay: Dox-inducible rtTA switch driving cell fate regulator/EGFP in mES cells
Format: cell-based, mouse

## C[C@H]1c2cccc(O)c2C(=O)C2=C(O)[C@]3(O)C(=O)C(C(N)=O)=C(O)[C@@H](N(C)C)[C@@H]3[C@@H](O)[C@@H]21 [Dox, Doxycycline]
MyoD/EGFP circuit, Matrigel, 1 mg/ml Dox, 60 hours post induction
  EGFP expression and differentiation of Matrigel-embedded mES cells: EGFP expression and formation of multinucleated syncitia
Ngn1/EGFP or MyoD/EGFP under TRE promoter
  differentiation / morphology of mES cells in presence of Dox: differentiation into either cells with a neuronal morphology (Ngn1), muscle cell morphology (MyoD); also recorded: visible changes to a myoblast morphology
rtTA switch, TRE promoter, CFR and EGFP, curve not shown
  expression level as measured by fluorescence, dosage response curve: depending of the Dox concentration
